Assay results published in patent US20260053941A1.
These are yes or no findings as the source states them, for the method shown. Some binding calls cover weakened binding; strength is not graded here.

How the values were obtained:
[1] = biological target: transferrin receptor 1 (TfR1) (human) (UniProt P02786); test: ELISA; complex in 25 mM Tris, 10% (w/v) sucrose, pH 7.5, after four weeks at room temperature
[2] = biological target: transferrin receptor 1 (TfR1) (human) (UniProt P02786); test: ELISA; complex in alternative formulations a and b, stored at -80 C and at room temperature for one week

B1: anti-TfR1 Fab-siRNA complex of formula (Id) (anti-TfR1 antibody provided in Table 2 covalently linked to a DUX4-targeting siRNA) (Fab, V domains shown)
VH: QVQLQESGPGLVKPSQTLSLTCTVTGYSITSGYYWNWIRQPPGKGLEWIGYITFDGANNYNPSLKNRVSISRDTSKNQFSLKLSSVTAEDTATYYCTRSSYDYDVLDYWGQGTTVTVSS
VL: DIQMTQSPSSLSASVGDRVTITCRASQDISNFLNWYQQKPGQPVKLLIYYTSRLHSGVPSRFSGSGSGTDFTLTISSLQPEDFATYYCQQGHTLPYTFGQGTKLEIKR
Q: B1 was tested. Which binding [1] did it give?
A: binds

Q: And the binding [2]?
A: binds
